From US11987581B1 (KING FAISAL UNIVERSITY, priority 2023, dated 2024)

Tested on: PC3 (prostate)
Test: MTT in vitro cytotoxic activity, PC3
Type: cell-based
Conditions: Homo sapiens; 96 hours exposure; 50% inhibition of cell proliferation; read-out: Cytotoxicity activity IC50, PC3 (prostate)
Procedure: Compounds 1-16 were screened for their in vitro cytotoxic activity utilizing a 3-(4,5-dimethyl-thiazol-2-yl)-2,5-diphenyltetrazolium bromide (MTT) assay against selected cancer human cell lines consisting of PC3 (prostate), HCT116 (colon), A375 (melanoma), H1299 (lung), MIAPaCa-2 (pancreas), HL60 (leukemia), MCF7 (breast), MDA-MB-231 (breast) (T. Mosmann, J. Immunol. Meth., 1983, 65, 55-63). The cells were cultured at 37° C. in RMPI1640 medium supplemented with 10% fetal bovine serum, 50 IU/mL penicillin, and 50 μg/mL streptomycin in a 5% CO2 incubator. All cells were sub-cultured 3 times/week by trypsinisation. Viable cells were seeded and allowed to adhere for 12 hours before a test drug was added in 96-well plates at an initial density of 1.0×10^5 cells/mL. Tumor cell lines were separately exposed to various concentrations of the tested compounds followed by incubation at a temperature of 37° C. during 96 hours inside a medium of fresh RMPI 1640. Cells were subsequently incubated at 37° C. using MTT at 0.5 mg/mL during 4 hours. After removal of supernatant, formazan crystals were dissolved in isopropanol and the optical density was measured at 570 nm. CX-4945 was used as a positive control.

Structure (SMILES): O=C(O)c1ccc2c(c1)nc(Nc1cccc(Cl)c1)c1ccncc12 [CX-4945]
- IC50: 2000 nM
